{
  "source": "the supplement of paper PMC8728848",
  "experiment_in_all_cases": "glycan array binding signal (z-score within array); higher = stronger binding",
  "conditions_in_all_cases": "glycan notation: IUPAC condensed, linker removed",
  "key": {"[1]": {"target": "Fuc(a1-3)GlcNAc", "in_short": "(§1)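 Negative Z-scores can be read as non-binding. The Z-score is calculated within each array and then averaged across arrays of one protein sequence at different concentrations or buffers and across linkers. Arrays, 3228 in all, were curated from the Consortium for Functional Glycomics database and kept only where the protein sequence was available.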"}, "[2]": {"target": "Fuc(a1-3)[Gal(b1-4)]Glc6S", "in_short": "as §1"}, "[3]": {"target": "Fuc(a1-3)[Gal(b1-4)]GlcNAc", "in_short": "as §1"}, "[4]": {"target": "Fuc(a1-3)[Gal(b1-4)]GlcNAc(b1-2)Man", "in_short": "as §1"}, "[5]": {"target": "Fuc(a1-3)[Gal(b1-4)]GlcNAc(b1-2)Man(a1-3)[Fuc(a1-3)[Gal(b1-4)]GlcNAc(b1-2)Man(a1-6)]Man(b1-4)GlcNAc(b1-4)GlcNAc", "in_short": "as §1"}, "[6]": {"target": "Fuc(a1-3)[Gal(b1-4)]GlcNAc(b1-2)Man(a1-3)[Fuc(a1-3)[Gal(b1-4)]GlcNAc(b1-2)Man(a1-6)]Man(b1-4)GlcNAc(b1-4)[Fuc(a1-6)]GlcNAc", "in_short": "as §1"}, "[7]": {"target": "Fuc(a1-3)[Gal(b1-4)]GlcNAc(b1-3)Gal(b1-3)[Fuc(a1-4)]GlcNAc", "in_short": "as §1"}, "[8]": {"target": "Fuc(a1-3)[Gal(b1-4)]GlcNAc(b1-3)Gal(b1-4)[Fuc(a1-3)]GlcNAc", "in_short": "as §1"}, "[9]": {"target": "Fuc(a1-3)[Gal(b1-4)]GlcNAc(b1-3)Gal(b1-4)[Fuc(a1-3)]GlcNAc(b1-3)Gal(b1-4)[Fuc(a1-3)]GlcNAc", "in_short": "as §1"}, "[10]": {"target": "Fuc(a1-3)[Gal(b1-4)]GlcNAc(b1-3)GalNAc", "in_short": "as §1"}, "[11]": {"target": "Fuc(a1-3)[Gal(b1-4)]GlcNAc(b1-6)GalNAc", "in_short": "as §1"}, "[12]": {"target": "Fuc(a1-3)[Gal(b1-4)]GlcNAc(b1-6)[Gal(b1-3)GlcNAc(b1-3)]Gal(b1-4)Glc", "in_short": "as §1"}, "[13]": {"target": "Fuc(a1-3)[Gal(b1-4)]GlcNAc6S", "in_short": "as §1"}, "[14]": {"target": "Fuc(a1-3)[Gal3S(b1-4)]Glc", "in_short": "as §1"}, "[15]": {"target": "Fuc(a1-3)[Gal3S(b1-4)]GlcNAc", "in_short": "as §1"}, "[16]": {"target": "Fuc(a1-3)[Gal3S(b1-4)]GlcNAc6S", "in_short": "as §1"}, "[17]": {"target": "Fuc(a1-3)[GalNAc(b1-4)]GlcNAc", "in_short": "as §1"}, "[18]": {"target": "Fuc(a1-3)[GalNAc(b1-4)]GlcNAc6S", "in_short": "as §1"}, "[19]": {"target": "Fuc(a1-4)GlcNAc", "in_short": "as §1"}, "[20]": {"target": "Fuc(b1-3)GlcNAc", "in_short": "as §1"}, "[21]": {"target": "Gal(a1-2)Gal", "in_short": "as §1"}, "[22]": {"target": "Gal(a1-3)Gal", "in_short": "as §1"}, "[23]": {"target": "Gal(a1-3)Gal(b1-3)GlcNAc", "in_short": "as §1"}, "[24]": {"target": "Gal(a1-3)Gal(b1-3)GlcNAc(b1-2)Man", "in_short": "as §1"}, "[25]": {"target": "Gal(a1-3)Gal(b1-3)GlcNAc(b1-2)Man(a1-3)[Gal(a1-3)Gal(b1-3)GlcNAc(b1-2)Man(a1-6)]Man(b1-4)GlcNAc(b1-4)GlcNAc", "in_short": "as §1"}, "[26]": {"target": "Gal(a1-3)Gal(b1-3)GlcNAc(b1-3)GalNAc", "in_short": "as §1"}, "[27]": {"target": "Gal(a1-3)Gal(b1-3)GlcNAc(b1-6)GalNAc", "in_short": "as §1"}, "[28]": {"target": "Gal(a1-3)Gal(b1-3)[Fuc(a1-4)]GlcNAc(b1-2)Man(a1-3)[Gal(a1-3)Gal(b1-3)[Fuc(a1-4)]GlcNAc(b1-2)Man(a1-6)]Man(b1-4)GlcNAc(b1-4)GlcNAc", "in_short": "as §1"}, "[29]": {"target": "Gal(a1-3)Gal(b1-4)Glc", "in_short": "as §1"}, "[30]": {"target": "Gal(a1-3)Gal(b1-4)GlcNAc", "in_short": "as §1"}},
  "note": "The list shows a part of the results.",
  "data": [
    {"binder": "PX9961KLbvu-535-38-535 (Bacteroides vulgatus) (protein) DKAYTDAESYTKGLHKIYSVWALSGQDGSSSSDISGLDAGNTALLRCWWTLQEQPTDEMKNAWNDAWCTEVNYMTWTTNKVEPIEGVYQRCMYIVALVNEFLKNIPNAPESIDKESYIAQARFNRAFAYYVLMDMFALPPFITEKNYSIEPAPLSREDLFNWIEAELNEIKPNLPSPRSEYGVADQAVASALLARMYLNAEIYTGKARYTECINACNEVIKAGYQLADNYADLFKADNGENPDTKKEIIYPIIFDGDKTQSWGMAAIIIGARGAEDKDVLLAHSGVDQGWAGFRATSNLVHLFDFQNDEEPKASEIQDKRGIFYDKGRSIDITSSVSGTFETEGWSVFKFSNLNSNGQPGKNTLWVDTDFPMFRLGDIYLMYAEAVARGGEGSKASAVEYINALRKRAYGDDKHNISENWLEENNFRNLLDERGRELYWEGIRRTDLVRFDLLTSGSYTWDFKGGINTGVGVNKRYNVYPIPVTDLTVNGNLQQNEGY", "values": [
      {"measurement": "glycan array binding signal (z-score)", "setting": "[1]", "result": 0.548},
      {"measurement": "glycan array binding signal (z-score)", "setting": "[2]", "result": 0.76},
      {"measurement": "glycan array binding signal (z-score)", "setting": "[3]", "result": -0.632},
      {"measurement": "glycan array binding signal (z-score)", "setting": "[4]", "result": -0.463},
      {"measurement": "glycan array binding signal (z-score)", "setting": "[5]", "result": -0.44},
      {"measurement": "glycan array binding signal (z-score)", "setting": "[6]", "result": -0.392},
      {"measurement": "glycan array binding signal (z-score)", "setting": "[7]", "result": -0.581},
      {"measurement": "glycan array binding signal (z-score)", "setting": "[8]", "result": 0.453},
      {"measurement": "glycan array binding signal (z-score)", "setting": "[9]", "result": 0.547},
      {"measurement": "glycan array binding signal (z-score)", "setting": "[10]", "result": -0.055},
      {"measurement": "glycan array binding signal (z-score)", "setting": "[11]", "result": 0.051},
      {"measurement": "glycan array binding signal (z-score)", "setting": "[12]", "result": -0.293},
      {"measurement": "glycan array binding signal (z-score)", "setting": "[13]", "result": 0.107},
      {"measurement": "glycan array binding signal (z-score)", "setting": "[14]", "result": 0.909},
      {"measurement": "glycan array binding signal (z-score)", "setting": "[15]", "result": 0.733},
      {"measurement": "glycan array binding signal (z-score)", "setting": "[16]", "result": -0.054},
      {"measurement": "glycan array binding signal (z-score)", "setting": "[17]", "result": 1.1},
      {"measurement": "glycan array binding signal (z-score)", "setting": "[18]", "result": 0.664},
      {"measurement": "glycan array binding signal (z-score)", "setting": "[19]", "result": -0.779},
      {"measurement": "glycan array binding signal (z-score)", "setting": "[20]", "result": -0.297},
      {"measurement": "glycan array binding signal (z-score)", "setting": "[21]", "result": -0.938},
      {"measurement": "glycan array binding signal (z-score)", "setting": "[22]", "result": 0.561},
      {"measurement": "glycan array binding signal (z-score)", "setting": "[23]", "result": -0.994},
      {"measurement": "glycan array binding signal (z-score)", "setting": "[24]", "result": 0.168},
      {"measurement": "glycan array binding signal (z-score)", "setting": "[25]", "result": -0.04},
      {"measurement": "glycan array binding signal (z-score)", "setting": "[26]", "result": -0.627},
      {"measurement": "glycan array binding signal (z-score)", "setting": "[27]", "result": -0.115},
      {"measurement": "glycan array binding signal (z-score)", "setting": "[28]", "result": 0.002},
      {"measurement": "glycan array binding signal (z-score)", "setting": "[29]", "result": -0.366},
      {"measurement": "glycan array binding signal (z-score)", "setting": "[30]", "result": 0.253}
    ]}
  ]
}
